Only a part is listed here, and it is no random draw. The data scatter; read single values as rough.
compound: COC(=O)/C=C/c1ccccc1 [methyl cinnamate]; experiment: log2 ratio of iodoacetamide-alkyne labeling of the cysteine site, DMSO over compound (competition); higher = stronger covalent engagement of the cysteine by the compound, active = 1 or more; conditions: 500 µM; treatment time 1 h; system: HEK293T cell lysate
Outline: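 For each cysteine, the log2 competition ratio is mean control-channel reporter intensity over mean compound-channel reporter intensity. HEK293T lysate (2 mg/mL) was exposed to vehicle or electrophile (500 µM, 1 h, ambient temperature), labelled with iodoacetamide alkyne (1 h), clicked to sCIP-TMT reagents, digested overnight with trypsin at 37 °C, streptavidin-enriched and analysed by Orbitrap Eclipse LC-MS/MS with FAIMS and FragPipe. Cysteines quantified in only one of three replicates, each with duplicate channels, were excluded.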

Sequences of proteins named here, by UniProt entry; tags and fusion partners are left off. A change or cut given only in a name is not applied to a line headed by its entry.
UniProt P98170, whole entry, looked up: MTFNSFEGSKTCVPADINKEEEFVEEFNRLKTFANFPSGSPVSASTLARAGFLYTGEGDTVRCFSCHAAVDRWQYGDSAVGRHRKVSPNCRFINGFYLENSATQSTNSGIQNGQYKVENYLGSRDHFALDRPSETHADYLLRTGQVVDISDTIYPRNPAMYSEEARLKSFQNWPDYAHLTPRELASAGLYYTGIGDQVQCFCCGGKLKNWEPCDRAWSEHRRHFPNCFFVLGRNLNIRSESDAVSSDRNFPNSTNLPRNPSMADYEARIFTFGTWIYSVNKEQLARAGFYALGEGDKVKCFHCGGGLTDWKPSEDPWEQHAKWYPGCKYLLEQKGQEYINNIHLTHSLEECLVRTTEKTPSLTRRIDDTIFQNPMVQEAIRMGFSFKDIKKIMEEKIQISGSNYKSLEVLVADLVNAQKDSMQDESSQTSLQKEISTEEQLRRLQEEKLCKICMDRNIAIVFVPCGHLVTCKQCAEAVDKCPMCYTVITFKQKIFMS
UniProt P62633: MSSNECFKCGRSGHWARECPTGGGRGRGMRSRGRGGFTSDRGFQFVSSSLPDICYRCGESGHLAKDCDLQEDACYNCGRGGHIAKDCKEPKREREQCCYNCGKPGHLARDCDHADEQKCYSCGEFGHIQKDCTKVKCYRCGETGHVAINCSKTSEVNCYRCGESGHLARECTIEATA
UniProt P67775, whole entry, looked up: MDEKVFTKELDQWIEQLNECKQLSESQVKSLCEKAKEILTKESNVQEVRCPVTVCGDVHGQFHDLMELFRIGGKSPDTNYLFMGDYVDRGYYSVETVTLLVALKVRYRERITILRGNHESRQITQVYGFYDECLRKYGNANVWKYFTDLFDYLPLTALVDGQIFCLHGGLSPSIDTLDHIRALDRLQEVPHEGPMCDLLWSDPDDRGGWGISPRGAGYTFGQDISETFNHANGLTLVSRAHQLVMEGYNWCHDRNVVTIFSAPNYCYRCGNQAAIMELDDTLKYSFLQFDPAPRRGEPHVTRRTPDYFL
UniProt Q00796: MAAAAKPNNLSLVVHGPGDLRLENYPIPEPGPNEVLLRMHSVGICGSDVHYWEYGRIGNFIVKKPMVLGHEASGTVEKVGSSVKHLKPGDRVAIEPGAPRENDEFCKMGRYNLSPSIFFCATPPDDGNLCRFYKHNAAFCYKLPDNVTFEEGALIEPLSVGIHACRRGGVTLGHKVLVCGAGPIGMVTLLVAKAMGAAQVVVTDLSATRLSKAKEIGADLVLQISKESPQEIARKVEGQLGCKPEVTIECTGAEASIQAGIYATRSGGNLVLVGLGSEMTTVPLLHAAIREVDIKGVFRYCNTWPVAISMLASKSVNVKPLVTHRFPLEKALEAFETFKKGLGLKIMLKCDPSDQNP
UniProt Q01082, whole entry, looked up: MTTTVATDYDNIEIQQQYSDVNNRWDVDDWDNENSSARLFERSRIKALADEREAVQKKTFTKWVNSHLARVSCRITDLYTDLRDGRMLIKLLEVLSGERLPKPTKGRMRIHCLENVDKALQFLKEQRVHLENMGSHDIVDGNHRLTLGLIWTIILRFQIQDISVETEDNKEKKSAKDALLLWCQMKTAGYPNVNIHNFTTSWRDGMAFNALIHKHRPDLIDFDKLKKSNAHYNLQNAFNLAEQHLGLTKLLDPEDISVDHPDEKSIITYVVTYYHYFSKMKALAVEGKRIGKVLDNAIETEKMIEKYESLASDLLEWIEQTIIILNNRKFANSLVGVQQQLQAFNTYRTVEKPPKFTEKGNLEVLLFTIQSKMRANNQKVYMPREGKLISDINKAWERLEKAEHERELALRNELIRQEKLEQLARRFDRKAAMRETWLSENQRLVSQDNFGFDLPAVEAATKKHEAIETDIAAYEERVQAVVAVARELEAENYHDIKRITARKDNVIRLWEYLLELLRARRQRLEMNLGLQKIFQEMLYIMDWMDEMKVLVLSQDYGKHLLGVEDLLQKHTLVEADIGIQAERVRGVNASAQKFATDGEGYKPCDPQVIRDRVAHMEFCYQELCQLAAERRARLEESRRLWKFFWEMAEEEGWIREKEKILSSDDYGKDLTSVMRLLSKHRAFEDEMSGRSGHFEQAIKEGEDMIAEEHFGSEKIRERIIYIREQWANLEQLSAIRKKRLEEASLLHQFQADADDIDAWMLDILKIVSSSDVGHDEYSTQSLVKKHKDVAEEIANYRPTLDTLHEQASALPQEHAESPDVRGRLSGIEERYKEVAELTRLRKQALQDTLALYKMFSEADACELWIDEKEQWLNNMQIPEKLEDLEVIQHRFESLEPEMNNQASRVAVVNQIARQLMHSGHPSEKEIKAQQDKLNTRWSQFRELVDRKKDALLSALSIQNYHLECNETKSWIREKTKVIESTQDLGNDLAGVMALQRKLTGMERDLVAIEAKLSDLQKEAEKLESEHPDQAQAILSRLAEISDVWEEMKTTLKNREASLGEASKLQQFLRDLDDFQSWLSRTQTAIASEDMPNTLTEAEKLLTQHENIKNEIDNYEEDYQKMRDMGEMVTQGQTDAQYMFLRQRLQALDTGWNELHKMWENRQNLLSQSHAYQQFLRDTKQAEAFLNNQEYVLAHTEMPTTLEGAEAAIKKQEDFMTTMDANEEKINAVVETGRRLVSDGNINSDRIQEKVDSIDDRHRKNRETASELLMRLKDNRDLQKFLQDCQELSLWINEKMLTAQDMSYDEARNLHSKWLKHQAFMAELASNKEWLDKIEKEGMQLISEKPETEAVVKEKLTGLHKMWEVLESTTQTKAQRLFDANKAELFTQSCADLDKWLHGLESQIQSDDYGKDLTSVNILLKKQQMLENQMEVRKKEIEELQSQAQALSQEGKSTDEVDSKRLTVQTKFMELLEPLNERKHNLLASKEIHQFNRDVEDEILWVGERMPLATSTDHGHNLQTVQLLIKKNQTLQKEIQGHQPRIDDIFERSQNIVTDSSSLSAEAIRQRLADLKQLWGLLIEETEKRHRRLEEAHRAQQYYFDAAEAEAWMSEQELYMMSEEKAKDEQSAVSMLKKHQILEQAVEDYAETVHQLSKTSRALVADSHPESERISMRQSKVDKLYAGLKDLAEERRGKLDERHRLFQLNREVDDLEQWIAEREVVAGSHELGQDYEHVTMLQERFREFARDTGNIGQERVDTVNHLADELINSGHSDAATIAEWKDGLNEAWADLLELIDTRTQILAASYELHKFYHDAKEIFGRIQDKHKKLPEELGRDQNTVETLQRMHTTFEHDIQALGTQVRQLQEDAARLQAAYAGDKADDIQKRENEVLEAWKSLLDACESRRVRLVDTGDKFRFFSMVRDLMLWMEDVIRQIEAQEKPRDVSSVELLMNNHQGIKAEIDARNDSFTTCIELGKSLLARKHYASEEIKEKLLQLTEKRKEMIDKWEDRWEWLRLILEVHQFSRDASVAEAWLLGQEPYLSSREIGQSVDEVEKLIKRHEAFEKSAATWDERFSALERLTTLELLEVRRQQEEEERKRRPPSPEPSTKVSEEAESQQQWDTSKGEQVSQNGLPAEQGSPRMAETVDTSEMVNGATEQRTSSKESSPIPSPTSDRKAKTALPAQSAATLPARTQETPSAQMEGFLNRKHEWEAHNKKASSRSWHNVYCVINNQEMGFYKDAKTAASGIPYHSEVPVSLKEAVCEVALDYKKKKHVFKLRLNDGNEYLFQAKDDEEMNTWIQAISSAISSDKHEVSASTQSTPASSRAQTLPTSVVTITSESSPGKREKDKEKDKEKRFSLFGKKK
UniProt Q00013: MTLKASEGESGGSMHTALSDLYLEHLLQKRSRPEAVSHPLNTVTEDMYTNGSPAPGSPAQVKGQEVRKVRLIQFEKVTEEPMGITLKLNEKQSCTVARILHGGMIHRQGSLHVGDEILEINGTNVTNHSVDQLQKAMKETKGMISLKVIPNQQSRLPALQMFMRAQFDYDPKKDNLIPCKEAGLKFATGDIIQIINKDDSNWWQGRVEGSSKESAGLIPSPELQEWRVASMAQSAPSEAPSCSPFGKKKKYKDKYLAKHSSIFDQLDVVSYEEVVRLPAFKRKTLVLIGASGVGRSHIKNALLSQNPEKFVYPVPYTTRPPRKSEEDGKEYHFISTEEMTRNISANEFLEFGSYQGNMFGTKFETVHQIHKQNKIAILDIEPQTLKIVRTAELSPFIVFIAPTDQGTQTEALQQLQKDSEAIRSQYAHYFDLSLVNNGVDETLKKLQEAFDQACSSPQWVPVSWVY
UniProt Q02218: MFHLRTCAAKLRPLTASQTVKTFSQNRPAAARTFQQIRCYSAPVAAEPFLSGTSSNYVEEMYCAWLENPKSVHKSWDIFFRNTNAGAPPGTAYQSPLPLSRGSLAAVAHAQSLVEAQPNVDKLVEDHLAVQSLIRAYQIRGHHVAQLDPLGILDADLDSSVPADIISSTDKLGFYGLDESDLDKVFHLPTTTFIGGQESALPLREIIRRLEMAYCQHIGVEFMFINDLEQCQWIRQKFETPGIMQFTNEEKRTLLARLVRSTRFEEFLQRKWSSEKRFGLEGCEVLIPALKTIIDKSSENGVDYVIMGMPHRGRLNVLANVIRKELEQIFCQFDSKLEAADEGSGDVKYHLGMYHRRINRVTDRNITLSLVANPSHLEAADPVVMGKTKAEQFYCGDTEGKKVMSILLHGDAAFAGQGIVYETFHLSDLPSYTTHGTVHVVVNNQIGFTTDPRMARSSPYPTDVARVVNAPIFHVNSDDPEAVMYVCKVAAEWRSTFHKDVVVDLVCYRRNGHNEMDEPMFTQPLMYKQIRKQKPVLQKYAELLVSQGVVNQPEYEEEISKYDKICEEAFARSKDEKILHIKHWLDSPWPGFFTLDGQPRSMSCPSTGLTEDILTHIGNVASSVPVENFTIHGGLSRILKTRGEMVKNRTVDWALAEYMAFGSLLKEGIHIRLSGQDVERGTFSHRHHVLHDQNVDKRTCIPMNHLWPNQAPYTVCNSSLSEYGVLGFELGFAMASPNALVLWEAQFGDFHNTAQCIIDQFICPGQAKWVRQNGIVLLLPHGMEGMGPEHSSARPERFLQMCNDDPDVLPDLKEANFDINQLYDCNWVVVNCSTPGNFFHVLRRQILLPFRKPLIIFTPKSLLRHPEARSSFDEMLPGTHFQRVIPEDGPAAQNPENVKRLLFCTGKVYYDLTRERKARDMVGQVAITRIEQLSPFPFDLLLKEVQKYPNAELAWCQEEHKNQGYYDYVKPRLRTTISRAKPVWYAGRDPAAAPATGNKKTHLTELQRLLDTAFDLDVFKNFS
UniProt P62330: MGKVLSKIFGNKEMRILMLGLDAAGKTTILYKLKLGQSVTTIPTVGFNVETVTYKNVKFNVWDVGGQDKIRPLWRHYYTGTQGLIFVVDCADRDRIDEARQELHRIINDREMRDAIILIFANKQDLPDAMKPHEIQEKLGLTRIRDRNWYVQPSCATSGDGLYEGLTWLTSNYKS

Target	log2 ratio of iodoacetamide-alkyne labeling
UniProt P62917_C114	inactive: 0.341
XIAP C12 (UniProt P98170)	inactive: 0.256
CNBP C140 (UniProt P62633)	inactive: 0.0247
PPP2CA C20 (UniProt P67775)	inactive: 0.227
CNBP C97 (UniProt P62633)	inactive: 0.121
SORD C301 (UniProt Q00796)	inactive: 0.385
SPTBN1 C112 (UniProt Q01082)	inactive: 0.0432
MPP1 C454 (UniProt Q00013)	inactive: -0.0856
RPL7A C199 (UniProt P62424)	inactive: 0.165
RPL18A C137 (UniProt Q02543)	inactive: 0.216
UniProt P63244_C240	inactive: 0.0875
UniProt P62888_C92	inactive: -0.0536
OGDH C566 (UniProt Q02218)	inactive: -0.206
UniProt P62330_C155	inactive: -0.0716
SORD C106 (UniProt Q00796)	inactive: 0.122

Single entries from the list.
MPP1 C454 (UniProt Q00013) | log2 ratio of iodoacetamide-alkyne labeling: inactive: -0.0856
UniProt P62330_C155 | log2 ratio of iodoacetamide-alkyne labeling: inactive: -0.0716
